Results published in patent US20080161320A1, “FUSED BICYCLIC PYRIMIDINES AS PTK INHIBITORS CONTAINING A ZINC BINDING MOIETY” (priority 2006, published 2008).
For at least one compound, name, drawing or mass did not settle the structure.

System: HDAC
Assay: HDAC fluorimetric assay kit (AK-500, Biomol), HeLa nuclear extract
Format: biochemical
Protocol: HDAC inhibitors were screened using an HDAC fluorimetric assay kit (AK-500, Biomol, Plymouth Meeting, Pa.). […] Each assay was setup as follows: Defrosted all kit components and kept on ice until use. […] Prepared dilutions of Trichostatin A (TSA, positive control) and tested compounds in assay buffer (5× of final concentration). Diluted Fluor de Lys™ Substrate in assay buffer to 100 uM (50 fold=2× final). Diluted Fluor de Lys™ developer concentrate 20-fold (e.g. 50 μl plus 950 μl Assay Buffer) in cold assay buffer. Second, diluted the 0.2 mM Trichostatin A 100-fold in the 1× Developer (e.g. 10 μl in 1 ml; final Trichostatin A concentration in the 1× Developer=2 μM; final concentration after addition to HDAC/Substrate reaction=1 μM). Added Assay buffer, diluted trichostatin A or test inhibitor to appropriate wells of the microtiter plate. Added diluted HeLa extract or other HDAC sample to all wells except for negative controls.

C[C@@H](Nc1ncnc2[nH]c(-c3ccc(CN4CCN(CCOCCCC(=O)NO)CC4)cc3)cc12)c1ccccc1 [Compound 49, (R)—N-hydroxy-4-(2-(4-(4-(4-(1-phenylethylamino)-7H-pyrrolo[2,3-d]pyrimidin-6-yl)benzyl)piperazin-1-yl)ethoxy)butanamide]
IC50: > 10 µM
